The record followed here is paper PMC3048431.

Amino acid sequences for entries named in this document (tags omitted). Residues count along the entry.
UniProt A2A884, whole entry: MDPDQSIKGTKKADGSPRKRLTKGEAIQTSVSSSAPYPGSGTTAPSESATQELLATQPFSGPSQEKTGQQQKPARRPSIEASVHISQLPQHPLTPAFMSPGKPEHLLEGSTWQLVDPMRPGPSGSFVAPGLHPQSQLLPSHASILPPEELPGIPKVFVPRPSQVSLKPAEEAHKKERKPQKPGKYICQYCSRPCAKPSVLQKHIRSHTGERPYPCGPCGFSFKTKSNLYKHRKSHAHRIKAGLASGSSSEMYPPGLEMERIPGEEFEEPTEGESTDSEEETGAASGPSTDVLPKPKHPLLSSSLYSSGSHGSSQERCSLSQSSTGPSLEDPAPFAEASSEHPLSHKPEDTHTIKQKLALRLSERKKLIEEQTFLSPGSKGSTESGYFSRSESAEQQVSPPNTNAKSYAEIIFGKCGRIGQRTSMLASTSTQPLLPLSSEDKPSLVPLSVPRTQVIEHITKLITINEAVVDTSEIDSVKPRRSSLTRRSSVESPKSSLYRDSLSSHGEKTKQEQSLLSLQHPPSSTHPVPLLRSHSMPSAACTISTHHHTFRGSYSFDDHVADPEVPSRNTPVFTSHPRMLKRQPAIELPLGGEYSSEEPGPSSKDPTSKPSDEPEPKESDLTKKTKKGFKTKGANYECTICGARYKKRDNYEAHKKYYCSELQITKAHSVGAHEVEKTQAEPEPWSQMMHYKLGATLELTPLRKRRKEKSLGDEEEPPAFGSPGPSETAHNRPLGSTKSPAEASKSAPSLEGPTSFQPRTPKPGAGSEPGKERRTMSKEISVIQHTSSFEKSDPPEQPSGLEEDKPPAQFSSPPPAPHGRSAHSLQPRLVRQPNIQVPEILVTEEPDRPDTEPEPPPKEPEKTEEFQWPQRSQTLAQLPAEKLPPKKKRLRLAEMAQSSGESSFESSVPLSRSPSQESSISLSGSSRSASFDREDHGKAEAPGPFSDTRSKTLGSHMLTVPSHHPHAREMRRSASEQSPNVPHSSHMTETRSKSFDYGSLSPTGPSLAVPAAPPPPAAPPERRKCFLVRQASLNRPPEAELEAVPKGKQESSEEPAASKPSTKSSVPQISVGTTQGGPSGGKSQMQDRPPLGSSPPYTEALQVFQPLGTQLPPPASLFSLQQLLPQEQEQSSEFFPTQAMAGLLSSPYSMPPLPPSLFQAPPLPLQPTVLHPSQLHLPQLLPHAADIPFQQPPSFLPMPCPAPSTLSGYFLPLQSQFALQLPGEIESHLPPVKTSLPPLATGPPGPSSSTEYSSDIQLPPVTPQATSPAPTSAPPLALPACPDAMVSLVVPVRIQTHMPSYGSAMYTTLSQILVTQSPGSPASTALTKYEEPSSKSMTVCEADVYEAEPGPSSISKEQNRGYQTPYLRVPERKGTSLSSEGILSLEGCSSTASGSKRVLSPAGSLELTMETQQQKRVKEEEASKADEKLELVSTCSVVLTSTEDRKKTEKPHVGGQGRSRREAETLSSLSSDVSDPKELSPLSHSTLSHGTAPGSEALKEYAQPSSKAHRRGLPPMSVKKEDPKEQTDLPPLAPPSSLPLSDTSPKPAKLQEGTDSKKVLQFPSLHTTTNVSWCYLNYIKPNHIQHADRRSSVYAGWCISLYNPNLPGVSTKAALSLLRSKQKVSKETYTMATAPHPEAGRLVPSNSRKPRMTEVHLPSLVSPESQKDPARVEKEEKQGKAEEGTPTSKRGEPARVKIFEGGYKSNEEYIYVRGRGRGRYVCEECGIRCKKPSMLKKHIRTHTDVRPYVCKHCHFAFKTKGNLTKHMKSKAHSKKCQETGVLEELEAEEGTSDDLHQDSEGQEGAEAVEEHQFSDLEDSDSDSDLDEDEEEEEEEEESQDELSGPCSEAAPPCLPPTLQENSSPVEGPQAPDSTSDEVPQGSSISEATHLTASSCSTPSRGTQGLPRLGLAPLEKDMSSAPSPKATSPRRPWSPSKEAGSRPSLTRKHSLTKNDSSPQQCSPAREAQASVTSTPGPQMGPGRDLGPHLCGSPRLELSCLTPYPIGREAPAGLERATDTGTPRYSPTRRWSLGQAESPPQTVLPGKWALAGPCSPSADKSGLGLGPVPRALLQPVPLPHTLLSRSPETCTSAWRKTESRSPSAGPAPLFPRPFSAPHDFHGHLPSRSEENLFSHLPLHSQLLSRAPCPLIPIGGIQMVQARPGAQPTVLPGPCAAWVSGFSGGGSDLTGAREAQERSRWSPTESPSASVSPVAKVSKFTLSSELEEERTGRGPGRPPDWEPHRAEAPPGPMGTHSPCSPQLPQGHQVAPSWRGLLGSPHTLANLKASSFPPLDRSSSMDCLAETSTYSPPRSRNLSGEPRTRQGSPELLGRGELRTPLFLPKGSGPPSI
UniProt A2A884, 106-2013: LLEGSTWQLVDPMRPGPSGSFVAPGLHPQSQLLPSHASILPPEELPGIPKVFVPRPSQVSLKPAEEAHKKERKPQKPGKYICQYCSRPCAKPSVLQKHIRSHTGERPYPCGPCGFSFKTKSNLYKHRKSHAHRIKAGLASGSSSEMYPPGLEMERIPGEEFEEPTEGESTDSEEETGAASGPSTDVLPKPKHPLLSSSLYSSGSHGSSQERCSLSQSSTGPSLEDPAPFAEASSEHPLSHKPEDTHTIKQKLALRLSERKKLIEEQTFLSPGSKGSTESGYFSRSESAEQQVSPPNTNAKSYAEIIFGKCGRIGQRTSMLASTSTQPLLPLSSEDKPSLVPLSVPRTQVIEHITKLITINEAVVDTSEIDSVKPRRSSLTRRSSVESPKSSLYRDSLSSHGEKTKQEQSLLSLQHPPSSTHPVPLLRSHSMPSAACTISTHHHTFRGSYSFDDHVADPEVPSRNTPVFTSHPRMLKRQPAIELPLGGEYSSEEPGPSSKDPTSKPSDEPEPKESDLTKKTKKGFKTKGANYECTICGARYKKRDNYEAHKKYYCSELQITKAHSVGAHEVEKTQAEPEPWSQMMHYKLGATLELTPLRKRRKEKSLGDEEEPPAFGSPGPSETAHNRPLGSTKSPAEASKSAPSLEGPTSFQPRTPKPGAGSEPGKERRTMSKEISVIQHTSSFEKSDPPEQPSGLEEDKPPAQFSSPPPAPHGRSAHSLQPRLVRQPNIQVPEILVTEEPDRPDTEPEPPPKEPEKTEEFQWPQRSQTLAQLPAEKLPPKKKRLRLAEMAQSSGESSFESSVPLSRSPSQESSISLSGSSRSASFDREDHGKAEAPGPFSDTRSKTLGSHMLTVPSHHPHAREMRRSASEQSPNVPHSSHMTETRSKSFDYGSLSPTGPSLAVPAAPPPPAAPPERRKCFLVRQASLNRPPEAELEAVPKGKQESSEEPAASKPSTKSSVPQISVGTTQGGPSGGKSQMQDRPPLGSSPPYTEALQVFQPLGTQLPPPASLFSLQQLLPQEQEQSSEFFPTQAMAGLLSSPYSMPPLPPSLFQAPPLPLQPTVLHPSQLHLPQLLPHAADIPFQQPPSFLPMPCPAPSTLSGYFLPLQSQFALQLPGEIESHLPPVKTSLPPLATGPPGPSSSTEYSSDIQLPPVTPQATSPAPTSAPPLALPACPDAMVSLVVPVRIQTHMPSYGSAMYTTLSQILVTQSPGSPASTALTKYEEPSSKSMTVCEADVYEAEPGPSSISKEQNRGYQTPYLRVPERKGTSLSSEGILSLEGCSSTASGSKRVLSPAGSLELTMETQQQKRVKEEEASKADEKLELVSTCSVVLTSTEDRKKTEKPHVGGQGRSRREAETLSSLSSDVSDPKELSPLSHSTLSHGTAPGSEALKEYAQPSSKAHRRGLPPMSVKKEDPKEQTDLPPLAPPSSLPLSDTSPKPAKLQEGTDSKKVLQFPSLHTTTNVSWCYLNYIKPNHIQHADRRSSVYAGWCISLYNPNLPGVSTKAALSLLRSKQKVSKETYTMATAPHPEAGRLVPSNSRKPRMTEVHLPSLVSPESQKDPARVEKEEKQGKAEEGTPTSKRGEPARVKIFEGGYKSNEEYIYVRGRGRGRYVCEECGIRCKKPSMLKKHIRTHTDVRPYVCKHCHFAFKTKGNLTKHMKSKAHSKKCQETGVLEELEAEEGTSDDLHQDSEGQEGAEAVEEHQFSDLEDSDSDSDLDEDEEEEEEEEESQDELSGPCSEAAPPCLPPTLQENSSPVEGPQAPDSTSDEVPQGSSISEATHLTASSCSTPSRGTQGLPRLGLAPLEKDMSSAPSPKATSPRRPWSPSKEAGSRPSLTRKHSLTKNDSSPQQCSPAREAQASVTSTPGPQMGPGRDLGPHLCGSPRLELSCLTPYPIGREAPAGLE

The target of one data set is ZAS3 endogenous (UniProt A2A884). Kind of data set: EMSA with antibody supershift (complex abolished). As to conditions: nuclear extract 2-5 ug, complex C2, protein and probe incubated 10 min, then ZAS3 antibody 15 min, pH and temperature not given (cites ref 36), protein in an extract, label: 32P-dCTP (Klenow). For orientation: Mobility shift assays separate free from complexed probe on a gel.

Data set [1] has as its target ZAS3 recombinant (aa 106-2013) (UniProt A2A884). Put plainly: EMSA with antibody supershift (complex abolished). Conditions: nuclear extract 2-5 ug, complex C4 only in ZAS3 transfectants, protein and probe incubated 10 min, then ZAS3 antibody 15 min, pH and temperature not given (cites ref 36), protein in an extract, label: 32P-dCTP (Klenow).

For at least one entry, the source does not settle the construct or the ends of the probe. Results from cells or extracts need not show a direct contact.

Consider “TTCTGGGGAAGTCCAGTGCTCACATGACCCA (double strand) [mouse TRAP proximal enhancer probe (-55 to -26)]”, for which the binding result (with ZAS3 endogenous; in data set [1]) was “binds” throughout.
